Measured values from paper PMC7105138, “Modeling cancer genomic data in yeast reveals selection against ATM function during tumorigenesis” (PLoS Genetics, 2020).
Where a chain is given by its changes, count along the chain named. Names and notes keep the numbering of the source. These are yes or no findings as the source states them, for the method shown. For part of these data: In cells and extracts the contact can be indirect. Some results given as binding are weak or reduced against the parent protein; the word gives no strength. For part of these data: Tags and fused reporters may be left off the sequences shown.

T1: Mre11 (S. cerevisiae (endogenous in W303)) (UniProt P32829)
T1 sequence: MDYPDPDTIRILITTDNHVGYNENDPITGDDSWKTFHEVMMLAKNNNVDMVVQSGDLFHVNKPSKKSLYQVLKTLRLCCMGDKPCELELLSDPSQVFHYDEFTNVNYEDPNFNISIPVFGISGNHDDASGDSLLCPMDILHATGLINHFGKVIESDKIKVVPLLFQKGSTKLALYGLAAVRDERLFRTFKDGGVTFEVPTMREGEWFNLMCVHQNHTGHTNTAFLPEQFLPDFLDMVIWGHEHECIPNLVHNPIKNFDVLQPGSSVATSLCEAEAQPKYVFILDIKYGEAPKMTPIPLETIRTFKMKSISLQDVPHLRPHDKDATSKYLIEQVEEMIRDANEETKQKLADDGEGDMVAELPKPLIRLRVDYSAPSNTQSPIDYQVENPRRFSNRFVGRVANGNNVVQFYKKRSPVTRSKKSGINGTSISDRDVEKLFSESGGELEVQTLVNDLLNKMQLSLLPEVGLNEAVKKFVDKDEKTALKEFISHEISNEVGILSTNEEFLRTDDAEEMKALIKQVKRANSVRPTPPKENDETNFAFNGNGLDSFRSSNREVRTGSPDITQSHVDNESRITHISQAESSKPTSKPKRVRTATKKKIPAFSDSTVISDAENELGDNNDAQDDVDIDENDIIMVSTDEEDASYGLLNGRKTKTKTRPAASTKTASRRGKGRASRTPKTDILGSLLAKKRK

T2: Mre11-E38K (S. cerevisiae) (UniProt P32829)
T2 sequence: T1 sequence with E38K

T3: Xrs2-FLAG (S. cerevisiae) (UniProt P33301)
T3 sequence: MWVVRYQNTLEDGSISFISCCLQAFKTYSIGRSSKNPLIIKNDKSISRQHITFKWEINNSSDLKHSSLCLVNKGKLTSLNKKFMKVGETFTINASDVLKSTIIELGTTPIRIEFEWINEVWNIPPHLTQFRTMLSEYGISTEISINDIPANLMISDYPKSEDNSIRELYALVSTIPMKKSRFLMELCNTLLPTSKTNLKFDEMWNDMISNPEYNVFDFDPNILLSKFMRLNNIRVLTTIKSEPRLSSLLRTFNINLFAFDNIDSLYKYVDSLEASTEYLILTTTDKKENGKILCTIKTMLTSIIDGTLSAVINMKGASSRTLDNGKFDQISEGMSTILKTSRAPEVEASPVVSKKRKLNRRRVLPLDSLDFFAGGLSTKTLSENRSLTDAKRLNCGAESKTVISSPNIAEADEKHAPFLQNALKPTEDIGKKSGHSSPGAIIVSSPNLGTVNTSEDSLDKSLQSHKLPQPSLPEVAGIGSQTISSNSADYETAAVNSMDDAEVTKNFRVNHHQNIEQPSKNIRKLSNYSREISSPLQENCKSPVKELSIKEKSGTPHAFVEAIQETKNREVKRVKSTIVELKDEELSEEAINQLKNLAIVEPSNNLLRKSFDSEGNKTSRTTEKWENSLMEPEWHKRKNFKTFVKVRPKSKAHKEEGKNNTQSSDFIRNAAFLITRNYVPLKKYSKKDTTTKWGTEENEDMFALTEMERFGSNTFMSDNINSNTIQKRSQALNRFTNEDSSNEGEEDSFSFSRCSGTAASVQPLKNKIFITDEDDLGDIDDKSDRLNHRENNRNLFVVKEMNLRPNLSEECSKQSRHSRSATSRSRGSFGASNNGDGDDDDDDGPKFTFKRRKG

B1: Rad50 (protein, UniProt P12753 1-1312)
chain: MSAIYKLSIQGIRSFDSNDRETIEFGKPLTLIVGMNGSGKTTIIECLKYATTGDLPPNSKGGVFIHDPKITGEKDIRAQVKLAFTSANGLNMIVTRNIQLLMKKTTTTFKTLEGQLVAINNSGDRSTLSTRSLELDAQVPLYLGVPKAILEYVIFCHQEDSLWPLSEPSNLKKKFDEIFQAMKFTKALDNLKSIKKDMSVDIKLLKQSVEHLKLDKDRSKAMKLNIHQLQTKIDQYNEEVSEIESQLNEITEKSDKLFKSNQDFQKILSKVENLKNTKLSISDQVKRLSNSIDILDLSKPDLQNLLANFSKVLMDKNNQLRDLETDISSLKDRQSSLQSLSNSLIRRQGELEAGKETYEKNRNHLSSLKEAFQHKFQGLSNIENSDMAQVNHEMSQFKAFISQDLTDTIDQFAKDIQLKETNLSDLIKSITVDSQNLEYNKKDRSKLIHDSEELAEKLKSFKSLSTQDSLNHELENLKTYKEKLQSWESENIIPKLNQKIEEKNNEMIILENQIEKFQDRIMKTNQQADLYAKLGLIKKSINTKLDELQKITEKLQNDSRIRQVFPLTQEFQRADLEMDFQKLFINMQKNIAINNKKMHELDRRYTNALYNLNTIEKDLQDNQKSKEKVIQLLSENLPEDCTIDEYNDVLEETELSYKTALENLKMHQTTLEFNRKALEIAERDSCCYLCSRKFENESFKSKLLQELKTKTDANFEKTLKDTVQNEKEYLHSLRLLEKHIITLNSINEKIDNSQKCLEKAKEETKTSKSKLDELEVDSTKLKDEKELAESEIRPLIEKFTYLEKELKDLENSSKTISEELSIYNTSEDGIQTVDELRDQQRKMNDSLRELRKTISDLQMEKDEKVRENSRMINLIKEKELTVSEIESSLTQKQNIDDSIRSKRENINDIDSRVKELEARIISLKNKKDEAQSVLDKVKNERDIQVRNKQKTVADINRLIDRFQTIYNEVVDFEAKGFDELQTTIKELELNKAQMLELKEQLDLKSNEVNEEKRKLADSNNEEKNLKQNLELIELKSQLQHIESEISRLDVQNAEAERDKYQEESLRLRTRFEKLSSENAGKLGEMKQLQNQIDSLTHQLRTDYKDIEKNYHKEWVELQTRSFVTDDIDVYSKALDSAIMKYHGLKMQDINRIIDELWKRTYSGTDIDTIKIRSDEVSSTVKGKSYNYRVVMYKQDVELDMRGRCSAGQKVLASIIIRLALSETFGANCGVIALDEPTTNLDEENIESLAKSLHNIINMRRHQKNFQLIVITHDEKFLGHMNAAAFTDHFFKVKRDDRQKSQIEWVDINRVTY
B2: Rad50-L1240F (protein, UniProt P12753 1-1312)
chain: B1 chain with L1240F
B3: Rad50-D67N (in MRX-D67N from insect cells) (protein, UniProt P12753 1-1312)
chain: B1 chain with D67N
B4: Rad50-D67Y (in MRX-D67Y from insect cells) (protein, UniProt P12753 1-1312)
chain: B1 chain with D67Y
B5: Rad50-L1240F (in MRX-L1240F from insect cells) (protein, UniProt P12753 1-1312)
chain: B1 chain with L1240F

Assays:
[1] = biological target: T1, Mre11 (S. cerevisiae (endogenous in W303)); assay: co-IP; immunoprecipitation from yeast cells with Rad50 or Mre11 antisera, western blot with Rad50 or Mre11 antisera; preimmune antibodies as negative controls
[2] = biological target: T2, Mre11-E38K (S. cerevisiae); assay: as above
[3] = biological target: T3, Xrs2-FLAG (S. cerevisiae); assay: co-purification on anti-FLAG agarose; Sf9 cells co-infected with baculoviruses for Mre11-his6, Xrs2-FLAG and Rad50 WT or mutant; lysate at 0.5 M NaCl on anti-FLAG M2 agarose overnight at 4°C, washed 10x with 500 mM NaCl, eluted with 3xFLAG peptide in 250 mM NaCl; Coomassie-stained SDS-PAGE

binding [1] | binding [2] | binding [3] | Binder
binds | binds |  | B1
binds |  |  | B2
 |  | binds | B3
 |  | binds | B4
 |  | binds | B5
